Test results as given in patent US5994311A, “Cell adhesion peptides for modifying the adhesion capacity of eukaryotic cells between each other” (Beiersdorf AG, priority 1994, dated 1999).
Part of at least one peptide drawing is inferred or uncertain, most often the ends. Peptide text beside a SMILES is read from it.

Tests used:
AKR-2B cells [1] = assay: Competitive inhibition test (adherence of AKR-2B cells to BSA/AP#2 conjugate); assay type: cell-based, mouse; conditions: for Inhibition (maximum measured reduction in cell adherence): soluble peptide 1 μmol/well, AKR-2B cells, plates coated with BSA/AP#2 conjugate 10 nmol/well; for inhibitory effect on the attachment of AKR-2B cells (in words): soluble peptides, competition with BSA/AP#2 conjugate
Description: Via the specific saturation of surface receptors (shown schematically in FIG. 3E), it is possible, in the case of soluble peptides, to measure an inhibitory effect on the adhesion of test cells (AKR-2B). In the experiment described here, a selected peptide/BSA conjugate corresponding to a peptide concentration of 10 nmol/well was placed in the microtiter plates and incubated for 2 hours at 37° C. Unsaturated binding sites in the culture vessel were subsequently saturated for 30 minutes with heat-denatured BSA (2 mg/ml). The peptides were dissolved in HYBRI-MAX™ (medium for culture of hybridoma cell types containing 1 mM Mn^2+ and 0.02% heat-denatured BSA) Medium (0.02 % BSA, 1 mM Mn^2+), and the pH was adjusted to a level of 7.2 to 7.4. Following that, the peptide solutions were treated with Reductacryl®. […] From these stock solutions, dilution series were prepared in HYBRI-MAX™ (medium for culture of hybridoma cell types containing 1 mM Mn^2+ and 0.02% heat-denatured BSA) medium (1 mM Mn^2+, 0.02% heat-denatured BSA), and added to the AKR-2B cells taken up in the same medium. After that, the specimens were incubated for 10 minutes at 37° C., while being gently shaken. The cells pre-treated in this way (1.5×10^5 /200 μl) were subsequently transferred to the conjugate-coated microtiter plates. The further treatment of the test plates was performed by analogy with 4.1.
The inhibitory effect of the peptides is shown in Tab. 4 as the difference between the 100% figure (control, with no peptide in the medium), and the maximum measured reduction in cell adherence at a peptide concentration of 1 μmol/well. A figure of 100% would mean complete inhibition, i.e. the maximum effect.
For the peptides of the invention available in soluble form, i.e. in a form not bound to carrier molecules, it is possible to detect adhesion inhibiting properties which come about as a result of the specific blockade of epitopes on surface receptors of the test cells (cf. FIG. 3E).
The AP#2 peptide was selected as an internal standard. Compared to most of the other peptides of the invention (cf. Tab. 2), the adhesion promoting properties of BSA/AP#2 conjugates lie within a region of semi-maximum effectiveness. Experience has shown that, in order to detect inhibitory effects, it is favourable to measure in a range of less than optimum effect, since otherwise weak inhibitory effects might not be detected.

HDF cells [2] = assay: Chemotaxis test using HDF cells (modified Boyden chambers); assay type: cell-based, human; conditions: 4 hours at 37° C., medium control deducted, Collagen 0.3 nmol/ml, Fibronectin 0.6 nmol/ml, peptides 1 μmol/ml
Description: In addition to wound contraction, the epithelialisation of the wound as a result of the migration of cells from the edges of wounds plays a significant role in wound repair. Some selected peptides were investigated in chemotaxis tests in order to study their ability to simulate the migration of HDF cells. The test was conducted in accordance with Scharffetter-Kochanek et al. (J. Invest. Dermatol. 98 (1992) 3-11) in modified Boyden chambers. In the lower cavity of the Boyden chamber, 210 μl DMEM (control) or the potential chemoattractant taken up in the same volume of DMEM were placed. […] 2×10^5 cells were pipetted into the upper Boyden chamber (volume 810 μl). The incubation time was 4 hours at 37° C. The results for the peptides investigated are summed up in Tab. 5, with the figures for the medium control already having been deducted from these readings.

HDF cells [3] = assay: Cell adherence test with HDF cells; assay type: cell-based, human; conditions: peptide/BSA conjugates bound to polystyrene, approx. 35 nmol peptide per well, 1 hour at 37° C., fibronectin positive control, BSA negative control
Description: (§1) 50 μl each of the peptide/BSA conjugates or the peptides were placed, in different concentrations, in the wells of a 96-well flat-bottomed microtiter plate (DYNATECH). After drying for 2 hours at 37° C., unbound peptide/BSA conjugate or peptide is removed by washing with phosphate-buffered saline solution (PBS) several times. In order to prevent the non-specific adhesion of the cells to polystyrene, all the wells were subsequently saturated for 30 min. at 37° C. with heat-denatured BSA (2 mg/ml). Following that, it was once again washed with PBS.
As a positive control for the adhesion capacity, bovine fibronectin (Paesel & Lorey, 1 mg/ml) was used, and heat-denatured BSA (2 mg/ml) as a negative control; this is not capable of influencing intercellular adhesion.
(§2) The cell adherence test was performed with AKR-2B mouse fibroblasts (Shipley et al., Cancer Res. 44 (1984) 710-716) and human dermal fibroblasts (HDF, removed from the lower arm, 18th passage). AKR-2B cells were cultivated in McCoy's medium (10% calf serum), and HDF cells in Dulbecco's modified eagle medium (DMEM) in the presence of 10% foetal calf serum (FCS) and 1% streptomycin/penicillin. For the adherence test, the cells were washed twice with protein-free HYBRI-MAX™ (medium for culture of hybridoma cell types containing 1 mM Mn^2+ and 0.02% heat-denatured BSA) medium (SIGMA) and then taken up in Hybri-Max (1 mM Mn^2+, 0.02% heat-denatured BSA). In this way, it was largely ensured that neither protein components from the culture medium, nor serum components, such as fibronectin for example, could influence the adherence test. In each well of the microtiter plate previously filled with test substance (peptide concentration per well: approx. 35 nmol), 200 μl of the cell suspension taken up in HYBRI-MAX™ (medium for culture of hybridoma cell types containing 1 mM Mn^2+ and 0.02% heat-denatured BSA) (1 mM Mn^2+, 0.02% heat-denatured BSA) (1.5×10^5 cells/well) were pipetted and incubated for 1 hour in an incubator at 37° C., 5% CO2 atmosphere. After that, the supernatant was decanted off, and non-adhered cells were removed by washing with PBS. The adhered cells were fixed for 0.5 min with methanol and stained with the MERCK HEMACOLOR™ (colution for fast staining in microscopy) reagent kit in order to quantify the number of cells.

AKR-2B cells [4] = assay: Cell adherence test, dilution series on AKR-2B cells (EC50); assay type: cell-based, mouse; conditions: peptide/BSA conjugates diluted in PBS, read off from curve
Description: as §1
as §2, with “In each well of the microtiter plate previously filled with test substance (peptide concentration per well: approx. 35 nmol), 200 μl of the cell suspension taken up in HYBRI-MAX™ (medium for culture of hybridoma cell types containing 1 mM Mn^2+ and 0.02% heat-denatured BSA) (1 mM Mn^2+, 0.02% heat-denatured BSA) (1.5×10^5 cells/well) were pipetted and incubated for 1 hour in an incubator at 37° C., 5% CO2 atmosphere. After that, the supernatant was decanted off, and non-adhered cells were removed by washing with PBS.” left out
For some selected conjugates, dilution series were included in order to determine binding constants for AKR-2B cells. […] After the readings had been plotted graphically, the difference between the figure for the maximum cell adherence and the zero value could be formed, and the EC50 values shown in Tab. 3 as a measure of the semi-maximum cell adherence could be read off from the line of the curve.
In order to establish binding constants for the peptides of the invention, dose effectiveness curves on AKR-2B cells were recorded for some selected conjugates. […] 3 as a measure of semi-maximum cell adherence were read off from the curve concerned (plotted: cell adherence versus peptide concentration). Low EC50 values mean that only small quantities of the substances need to be used in order to achieve a semi-maximum effect, in other words that the substance is very effective.

## CC[C@H](C)[C@H](NC(=O)CN)C(=O)N[C@H](C(=O)N[C@@H](CCCNC(=N)N)C(=O)N[C@H](C(=O)N1CCC[C@H]1C(=O)N[C@@H](C)C(=O)N[C@@H](CCC(=O)O)C(=O)N[C@@H](CC(C)C)C(=O)N[C@@H](CC(C)C)C(=O)N[C@@H](CC(=O)O)C(=O)NCC(=O)N[C@@H](CS)C(=O)O)[C@@H](C)O)C(C)C [AP#7, Gly-Ile-Val-Arg-Thr-Pro-Ala-Glu-Leu-Leu-Asp-Gly]
AKR-2B cells [1]
  Inhibition (maximum measured reduction in cell adherence): 49.2%
  inhibitory effect on the attachment of AKR-2B cells (in words): Similarly powerful effects
HDF cells [2]
  Avge. no. of cells per field of vision: 10.9
  Chemotactic migration [%]: 23.9%
HDF cells [3]
  CELL ADHESION [%]: 103.3%
AKR-2B cells [4]
  EC50 (semi-maximum cell adherence): 27.0 pmol/well

## CC[C@H](C)[C@H](NC(=O)[C@@H](N)CO)C(=O)N[C@@H](CCC(N)=O)C(=O)N[C@@H](CCCNC(=N)N)C(=O)N[C@@H](CC(=O)O)C(=O)N[C@@H](CC(N)=O)C(=O)N[C@@H](Cc1ccc(O)cc1)C(=O)N[C@@H](C)C(=O)N[C@@H](CCC(=O)O)C(=O)N[C@@H](CC(C)C)C(=O)N[C@@H](CC(C)C)C(=O)N[C@@H](CC(=O)O)C(=O)N[C@@H](CC(=O)O)C(=O)N[C@@H](CS)C(=O)O [AP#3, S-I-Q-R-D-N-Y-A-E-L-L-D-D-(C)] (H-SIQRDNYAELLDDC-OH)
AKR-2B cells [1]
  Inhibition (maximum measured reduction in cell adherence): 17%
  inhibitory effect on the attachment of AKR-2B cells (in words): slightly less efficiency
HDF cells [2]
  Avge. no. of cells per field of vision: 11.1
  Chemotactic migration [%]: 24.3%
HDF cells [3]
  CELL ADHESION [%]: 47.8%
AKR-2B cells [4]
  EC50 (semi-maximum cell adherence): 24.7 pmol/well

## CC[C@H](C)[C@H](NC(=O)CN)C(=O)N[C@@H](CCC(=O)O)C(=O)N[C@H](C(=O)N1CCC[C@H]1C(=O)N[C@@H](CC(C)C)C(=O)N1CCC[C@H]1C(=O)N[C@@H](CCCCN)C(=O)N[C@@H](CCCCN)C(=O)N[C@@H](CCC(=O)O)C(=O)N[C@@H](CC(C)C)C(=O)N[C@@H](CC(C)C)C(=O)N[C@@H](CC(C)C)C(=O)N1CCC[C@H]1C(=O)N[C@@H](CS)C(=O)O)[C@@H](C)O [AP#2, G-I-E-T-P-L-P-K-K-E-L-L-L-P-(C)] (H-GIETPLPKKELLLPC-OH)
AKR-2B cells [1]
  Inhibition (maximum measured reduction in cell adherence): 51.5%
  inhibitory effect on the attachment of AKR-2B cells (in words): highly significant inhibitory effect
HDF cells [3]
  CELL ADHESION [%]: 44.1%
AKR-2B cells [4]
  EC50 (semi-maximum cell adherence): 39.8 pmol/well

## CC(C)C[C@H](NC(=O)[C@H](CC(C)C)NC(=O)[C@H](CCC(=O)O)NC(=O)[C@@H](NC(=O)[C@H](Cc1ccc(O)cc1)NC(=O)[C@H](CCC(=O)O)NC(=O)[C@H](CCCCN)NC(=O)CNC(=O)[C@H](CS)NC(=O)[C@H](CO)NC(=O)[C@@H](N)CC(C)C)C(C)C)C(=O)N[C@@H](CC(=O)O)C(=O)NCC(=O)N[C@@H](CS)C(=O)O [AP#4, L-S-C-G-K-E-Y-V-E-L-L-D-G-(C)] (H-LSCGKEYVELLDGC-OH)
AKR-2B cells [1]
  Inhibition (maximum measured reduction in cell adherence): 19.9%
  inhibitory effect on the attachment of AKR-2B cells (in words): slightly less efficiency
HDF cells [3]
  CELL ADHESION [%]: 77.1%
AKR-2B cells [4]
  EC50 (semi-maximum cell adherence): 30.0 pmol/well
